Source: patent US20030040612A1 (MOUNT SINAI SCHOOL OF MEDICINE, published 2003)
Results are given in words; binding and its absence hold for the method and conditions named. Some results given as binding are weak or reduced against the parent protein; the word gives no strength.

Experiments:
[1] = molecular target: T1, SNT-1 PTB domain (residues 11-140 of SEQ ID NO:1) (human) (UniProt Q8WU20); experiment: NMR HSQC spectra
T1 sequence: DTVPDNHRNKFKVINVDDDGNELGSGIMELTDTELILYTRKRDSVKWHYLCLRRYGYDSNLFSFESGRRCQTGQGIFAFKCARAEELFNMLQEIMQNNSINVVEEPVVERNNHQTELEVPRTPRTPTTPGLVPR

[2] = molecular target: T1, SNT-1 PTB domain (residues 11-140 of SEQ ID NO:1) (human); experiment: NMR structure of the 1:1 complex
[3] = molecular target: T1, SNT-1 PTB domain (residues 11-140 of SEQ ID NO:1) (human); experiment: NMR titration, HSQC chemical shift perturbation

Measured: binding

B1: hFGFR1 peptide, 22-residue peptide derived from the juxtamembrane region of hFGFR1 (residues 409-430 of SEQ ID NO:2), HSQMAVHKLAKSIPLRRQVTVS (SEQ ID NO:3) (peptide)
peptide: HSQMAVHKLAKSIPLRRQVTVS
notes: Synthetic peptide, not phosphorylated; also called FGFR peptide; FGF receptor peptide
binds: all assays above
